Measurements: patent US20250144228A1, “NANOBODY-DRUG ADDUCTS AND USES THEREOF” (priority 2022, published 2025)
Results are given in words; binding and its absence hold for the method and conditions named. Some results given as binding are weak or reduced against the parent protein; the word gives no strength.

Chains of the proteins cited; added tags and fusions are not shown. Lines headed by an entry give the natural chain unless they say otherwise; changes in a name come on top. Residues count along the entry.
UniProt Q8I0U8: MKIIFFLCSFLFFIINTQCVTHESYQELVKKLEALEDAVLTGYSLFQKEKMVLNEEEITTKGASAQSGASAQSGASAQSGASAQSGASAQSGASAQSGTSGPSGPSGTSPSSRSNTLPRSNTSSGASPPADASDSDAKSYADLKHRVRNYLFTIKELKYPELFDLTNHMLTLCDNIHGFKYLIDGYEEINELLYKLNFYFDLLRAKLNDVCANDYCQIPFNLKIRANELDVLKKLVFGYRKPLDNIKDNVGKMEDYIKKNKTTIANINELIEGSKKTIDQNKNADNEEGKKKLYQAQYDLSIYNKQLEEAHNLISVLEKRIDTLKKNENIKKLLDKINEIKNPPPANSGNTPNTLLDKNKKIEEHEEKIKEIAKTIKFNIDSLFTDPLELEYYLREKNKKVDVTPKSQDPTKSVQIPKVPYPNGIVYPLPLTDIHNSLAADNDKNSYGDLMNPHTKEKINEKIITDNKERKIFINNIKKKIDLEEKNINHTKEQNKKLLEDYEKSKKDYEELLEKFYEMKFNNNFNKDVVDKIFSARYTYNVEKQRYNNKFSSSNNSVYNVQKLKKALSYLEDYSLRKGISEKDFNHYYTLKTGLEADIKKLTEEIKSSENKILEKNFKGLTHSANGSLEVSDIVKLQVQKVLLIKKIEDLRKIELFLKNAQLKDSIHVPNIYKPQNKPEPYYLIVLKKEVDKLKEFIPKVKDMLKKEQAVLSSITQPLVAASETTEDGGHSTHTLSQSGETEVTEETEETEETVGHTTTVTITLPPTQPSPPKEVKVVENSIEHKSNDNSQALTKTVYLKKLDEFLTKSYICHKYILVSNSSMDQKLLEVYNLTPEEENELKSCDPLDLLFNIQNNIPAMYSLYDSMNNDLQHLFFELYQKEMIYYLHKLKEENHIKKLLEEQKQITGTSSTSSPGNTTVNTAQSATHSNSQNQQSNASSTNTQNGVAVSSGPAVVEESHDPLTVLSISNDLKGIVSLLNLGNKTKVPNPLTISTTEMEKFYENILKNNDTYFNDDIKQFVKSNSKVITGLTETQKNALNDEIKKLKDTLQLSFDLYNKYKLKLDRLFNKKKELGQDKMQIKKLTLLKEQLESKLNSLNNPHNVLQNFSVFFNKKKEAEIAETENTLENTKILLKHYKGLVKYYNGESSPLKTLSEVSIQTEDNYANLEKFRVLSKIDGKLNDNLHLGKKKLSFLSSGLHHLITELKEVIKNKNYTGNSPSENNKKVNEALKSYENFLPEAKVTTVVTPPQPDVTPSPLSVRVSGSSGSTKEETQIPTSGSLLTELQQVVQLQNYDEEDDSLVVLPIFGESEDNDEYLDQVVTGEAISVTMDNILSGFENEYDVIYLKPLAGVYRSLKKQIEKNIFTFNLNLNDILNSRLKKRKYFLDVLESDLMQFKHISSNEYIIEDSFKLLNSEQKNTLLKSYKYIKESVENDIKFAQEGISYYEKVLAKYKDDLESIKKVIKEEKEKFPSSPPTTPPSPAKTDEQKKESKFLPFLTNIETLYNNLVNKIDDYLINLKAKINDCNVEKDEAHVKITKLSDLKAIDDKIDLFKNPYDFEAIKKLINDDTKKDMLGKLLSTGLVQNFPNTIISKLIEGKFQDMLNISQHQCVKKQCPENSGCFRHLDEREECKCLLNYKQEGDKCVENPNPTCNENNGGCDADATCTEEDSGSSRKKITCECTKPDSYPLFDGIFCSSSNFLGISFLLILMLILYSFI
P. falciparum MSP-1 full length pro-peptide (p190): residues 20-1699 of Q8I0U8
P. falciparum MSP-1 subunit p83 (plate-bound, isolated): residues 20-722 of Q8I0U8
P. falciparum MSP-1 subunit p42 (plate-bound, isolated): residues 1327-1699 of Q8I0U8

Key:
[1] = target: P. falciparum MSP-1 subunit p83 (plate-bound, isolated) (Plasmodium falciparum) (UniProt Q8I0U8); assay: ELISA on plate-bound MSP-1 subunits, biotinylated VHH, streptavidin-HRP
[2] = target: P. falciparum MSP-1 full length pro-peptide (p190) (Plasmodium falciparum) (UniProt Q8I0U8); assay: Western blot against full length p190
[3] = target: P. falciparum MSP-1 subunit p83 (plate-bound, isolated) (Plasmodium falciparum) (UniProt Q8I0U8); assay: Western blot against PfMSP-1 subunits
[4] = target: P. falciparum MSP-1 subunit p42 (plate-bound, isolated) (Plasmodium falciparum) (UniProt Q8I0U8); assay: ELISA on plate-bound MSP-1 subunits, biotinylated VHH, streptavidin-HRP
[5] = target: P. falciparum MSP-1 subunit p42 (plate-bound, isolated) (Plasmodium falciparum) (UniProt Q8I0U8); assay: Western blot against PfMSP-1 subunits

Measured: binding

B1: anti-p83 B4 VHH (P. falciparum MSP-1 specific) (VHH)
VHH: QLQLVESGGGLAQAGGSLRLSCAASGRTSSTKPMGWFRQAPGLEREFVASISWLGGSTLYSDSVKGRFTISRDNAKNTVYLQMNSLKSEDTAVYYCAGGTSAYSGRDSSRYEYWGQGTQVTVSS
binds: [1] | [2] | [3]

B2: anti-p42 A6 VHH (P. falciparum MSP-1 specific) (VHH)
VHH: QVQLVESGGGLVQAGGSLRLSCAASARTFSYYGAAWFRQAPGKEREFVAAVSWNGDDTYYADSVKGRFTISRDNTKNTVSLQMNALKPEDTAVYYCEAAAYGRDWRQSANYVYWGQGTQVTVSS
binds: [4] | [2] | [5]

B3: anti-p42 G11 VHH (P. falciparum MSP-1 specific) (VHH)
VHH: QVQLVETGGGLVQAGGSLRLSCVVSGRSLILYGMGWFRQAPGKEREFVAGIVWNGGWTYYADSVKGRFTISRDTAKNTVYLQMNSLKPEDTAVYSCAAGPGDGRRRVAPAEYNYWGQGTQVTVSS
binds: [4] | [2] | [5]
